No constants are given. Whether binding was seen depends on the method and setting. Binding seen in cells or lysates may run through a third protein. Some binding calls cover weakened binding; strength is not graded here.
Target: FLAG-tagged CycK protein (human) (UniProt O75909)
Assay: co-IP

Chains of the proteins cited; added tags and fusions are not shown.
UniProt O75909, whole entry: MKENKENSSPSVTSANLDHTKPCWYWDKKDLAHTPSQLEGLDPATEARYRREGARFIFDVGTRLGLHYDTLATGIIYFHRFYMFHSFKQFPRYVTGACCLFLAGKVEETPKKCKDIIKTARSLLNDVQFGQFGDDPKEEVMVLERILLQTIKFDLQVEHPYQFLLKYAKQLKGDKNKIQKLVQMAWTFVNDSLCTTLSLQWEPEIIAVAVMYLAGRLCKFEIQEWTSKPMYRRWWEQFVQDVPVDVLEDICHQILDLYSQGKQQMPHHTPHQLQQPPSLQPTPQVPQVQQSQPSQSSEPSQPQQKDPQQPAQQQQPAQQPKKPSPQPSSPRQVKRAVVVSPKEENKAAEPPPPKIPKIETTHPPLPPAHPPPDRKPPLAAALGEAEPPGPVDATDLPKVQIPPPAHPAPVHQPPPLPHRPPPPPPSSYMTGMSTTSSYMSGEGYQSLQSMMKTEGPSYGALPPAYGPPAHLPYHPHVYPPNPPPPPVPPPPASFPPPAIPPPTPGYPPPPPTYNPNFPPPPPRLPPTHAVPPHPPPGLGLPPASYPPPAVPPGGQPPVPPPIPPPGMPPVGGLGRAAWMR
UniProt Q14004, whole entry: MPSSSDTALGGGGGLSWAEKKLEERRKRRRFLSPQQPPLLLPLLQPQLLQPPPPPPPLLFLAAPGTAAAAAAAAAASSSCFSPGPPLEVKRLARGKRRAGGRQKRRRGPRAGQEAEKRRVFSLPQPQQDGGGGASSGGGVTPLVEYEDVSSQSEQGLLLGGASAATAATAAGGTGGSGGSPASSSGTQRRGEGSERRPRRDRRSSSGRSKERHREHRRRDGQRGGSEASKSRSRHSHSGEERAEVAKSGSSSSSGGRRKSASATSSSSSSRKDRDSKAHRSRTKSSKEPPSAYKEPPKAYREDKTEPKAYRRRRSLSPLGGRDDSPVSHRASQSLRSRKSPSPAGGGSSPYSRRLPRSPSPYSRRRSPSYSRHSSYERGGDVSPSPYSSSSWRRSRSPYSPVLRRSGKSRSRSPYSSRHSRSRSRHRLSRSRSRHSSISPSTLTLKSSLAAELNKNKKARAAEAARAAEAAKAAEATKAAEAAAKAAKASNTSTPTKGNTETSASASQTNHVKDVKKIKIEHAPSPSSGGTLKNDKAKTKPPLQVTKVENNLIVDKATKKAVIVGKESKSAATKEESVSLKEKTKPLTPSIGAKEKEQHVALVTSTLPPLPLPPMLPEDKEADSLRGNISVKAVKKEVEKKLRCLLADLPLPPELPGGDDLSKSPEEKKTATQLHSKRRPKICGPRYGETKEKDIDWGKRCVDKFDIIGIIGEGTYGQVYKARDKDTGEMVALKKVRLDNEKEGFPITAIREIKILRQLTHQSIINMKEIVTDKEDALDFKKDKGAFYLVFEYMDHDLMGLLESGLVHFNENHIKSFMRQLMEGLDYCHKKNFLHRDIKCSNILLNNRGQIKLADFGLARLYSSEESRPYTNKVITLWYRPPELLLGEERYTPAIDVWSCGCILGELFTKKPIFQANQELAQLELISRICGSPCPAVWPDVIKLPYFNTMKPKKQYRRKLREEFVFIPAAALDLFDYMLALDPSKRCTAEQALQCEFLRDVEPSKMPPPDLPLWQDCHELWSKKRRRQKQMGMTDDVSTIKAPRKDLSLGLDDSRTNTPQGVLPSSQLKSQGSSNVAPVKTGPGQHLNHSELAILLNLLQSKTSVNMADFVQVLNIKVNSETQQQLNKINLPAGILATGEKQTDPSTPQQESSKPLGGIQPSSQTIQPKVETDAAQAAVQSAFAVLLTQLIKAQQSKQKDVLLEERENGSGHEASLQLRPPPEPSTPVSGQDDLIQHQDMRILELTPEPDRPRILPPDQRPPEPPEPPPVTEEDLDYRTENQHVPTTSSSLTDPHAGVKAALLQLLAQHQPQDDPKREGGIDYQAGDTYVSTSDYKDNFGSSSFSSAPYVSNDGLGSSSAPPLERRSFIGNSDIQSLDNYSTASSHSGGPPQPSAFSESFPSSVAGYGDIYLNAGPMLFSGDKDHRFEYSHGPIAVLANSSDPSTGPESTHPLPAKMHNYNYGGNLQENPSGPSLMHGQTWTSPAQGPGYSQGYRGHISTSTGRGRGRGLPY

Substance: HA-tagged CDK13 protein (from UniProt Q14004 1-1512)
- binding: binds

From paper doi:10.1101/2021.05.24.445478
